The exact form of at least one protein or probe is not confirmed. Results from cells or extracts need not show a direct contact. For part of these data: A negative result means that nothing was seen under these conditions. Where a protein sequence is shown, tags need not be part of it.

For series [1], the target named is T1, HNF3β (hepatocyte nuclear factor 3-beta) (human (HepG2 cells)) (UniProt Q9Y261).
T1 sequence (looked up, limits assumed): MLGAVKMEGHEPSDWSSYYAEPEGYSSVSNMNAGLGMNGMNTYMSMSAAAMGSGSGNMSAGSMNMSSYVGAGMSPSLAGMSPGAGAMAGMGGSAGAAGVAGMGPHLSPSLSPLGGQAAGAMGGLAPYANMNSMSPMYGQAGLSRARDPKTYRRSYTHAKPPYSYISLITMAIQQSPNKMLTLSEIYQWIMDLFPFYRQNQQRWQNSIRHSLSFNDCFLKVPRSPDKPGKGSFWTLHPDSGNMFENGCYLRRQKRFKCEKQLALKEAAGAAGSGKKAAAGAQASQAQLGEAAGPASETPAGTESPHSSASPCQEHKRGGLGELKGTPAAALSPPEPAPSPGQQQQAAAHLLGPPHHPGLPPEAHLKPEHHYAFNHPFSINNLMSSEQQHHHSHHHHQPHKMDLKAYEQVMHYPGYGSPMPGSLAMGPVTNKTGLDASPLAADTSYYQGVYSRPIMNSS
The series can be described thus: competition with a labelled probe. The settings on record: cold mutated probe (50- to 100-fold excess) did not diminish the band; 20 ug HepG2 nuclear extract, 0.5 ug poly(dI-dC) (0.8 ug in supershift), 13.8 nM probe, 18 ul, 25 C 20 min, 6% native PAGE; salt and pH not stated (Viagene kit); protein in an extract.

Series [2] deals with T1, HNF3β (hepatocyte nuclear factor 3-beta) (human (HepG2 cells)). Nature of the series: competition EMSA. The settings on record: 50- and 100-fold molar excess cold probe diminished the band; 20 ug HepG2 nuclear extract, 0.5 ug poly(dI-dC) (0.8 ug in supershift), 13.8 nM probe, 18 ul, 25 C 20 min, 6% native PAGE; salt and pH not stated (Viagene kit); protein in an extract.
The target is the same in series [3]. The series can be described thus: EMSA supershift. The settings on record: anti-HNF3β 4 ug, HepG2 nuclear extract; 20 ug HepG2 nuclear extract, 0.5 ug poly(dI-dC) (0.8 ug in supershift), 13.8 nM probe, 18 ul, 25 C 20 min, 6% native PAGE; salt and pH not stated (Viagene kit); protein in an extract; label: 5' biotin on both strands. (In general: Mobility shift assays separate free from complexed probe on a gel.)

“CTTTTAAGGTATCCGCCCTCTTAGG (double strand) [HNF3βmut cold probe]”: in series [1], the binding result is listed as “no binding”. Consider “CTTTTAAAATAGTTGCTTTCTTAGG (double strand) [cold wild-type CPS1 probe]”, for which the binding result in series [2] is “binds”. For “CTTTTAAAATAGTTGCTTTCTTAGG (double strand) [CPS1 promoter HNF3β site 2 probe]”, the binding result in series [3] is on record as “binds”.

The record behind these values is PMC5571533.
